As a reminder, the pIC50 is the negative decadic logarithm of the IC50, by convention in mol/L.

Drawing on patent US6818741B2, “Alpha-fetoprotein peptides and uses therof” (CLF Medical Technology Acceleration Program, Inc., priority 2000, dated 2004), this text covers IC50 for 1 molecule.

Molecules are shown by their SMILES. pIC50: −log10 of the molar value.

The target in this assay is T1, estrogen receptor (Oryctolagus cuniculus, UniProt G1SML6).
T1 sequence (G1SML6 1-598): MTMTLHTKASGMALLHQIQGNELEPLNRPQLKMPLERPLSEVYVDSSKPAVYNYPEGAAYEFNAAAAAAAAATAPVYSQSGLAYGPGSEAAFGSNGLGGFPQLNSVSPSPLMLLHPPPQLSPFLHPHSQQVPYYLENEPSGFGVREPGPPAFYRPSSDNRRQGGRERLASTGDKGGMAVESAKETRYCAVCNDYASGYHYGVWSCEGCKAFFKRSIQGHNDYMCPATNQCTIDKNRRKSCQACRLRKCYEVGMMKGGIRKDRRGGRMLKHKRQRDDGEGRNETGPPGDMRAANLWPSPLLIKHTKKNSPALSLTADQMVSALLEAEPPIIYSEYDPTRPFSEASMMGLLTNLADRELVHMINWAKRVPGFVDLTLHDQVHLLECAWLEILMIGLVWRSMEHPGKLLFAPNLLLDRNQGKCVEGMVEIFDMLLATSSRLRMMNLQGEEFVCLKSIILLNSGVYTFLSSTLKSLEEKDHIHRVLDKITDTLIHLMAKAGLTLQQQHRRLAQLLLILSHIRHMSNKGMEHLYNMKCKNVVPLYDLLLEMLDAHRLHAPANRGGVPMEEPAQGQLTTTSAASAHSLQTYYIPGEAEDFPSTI
Put plainly: Assessment of estrogen receptor antagonism ([3H]E2 binding, uterine cytosol). Conditions: [3H]E2, rabbit uterine cytosol; read-out: IC50, interference with E2 binding to ER. As to the method: Assessment of Estrogen Receptor Antagonism. Commercially obtained rabbit uteri (Pel-Freez Biological, Rogers, Ark.) were used as a source of estrogen receptor. […] Total count tubes received 20 μl of [^3H] estradiol and 180 μl of assay buffer.

Consider `CC/C(=C(\c1ccccc1)c1ccc(OCCN(C)C)cc1)c1ccccc1` [tamoxifen, reference compound], for which the pIC50 was 7.30.
